PubChem BioAssay AID686943 – Drosophila RNAi Screening Center – 2013
The deposit covers about 23,000 reagents; below is a random part of those with a known target gene and a result. 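Extra replicates exist only for a retested subset of genes; insulin dose and duration not given; both raised and lowered dpERK matter.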 Reagents against one gene are numbered here. A plus sign joins genes that one reagent is predicted to hit. Further read-outs or replicates are left out here. The record does not give: the amount of reagent, the time to read-out.

Test: 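Fly genes whose loss alters ERK activation after insulin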 (primary screen)
Cells: Drosophila S2R+ haemocyte-like cells expressing YFP-tagged ERK (Rolled)
Reagent: long dsRNA against Drosophila genes
Conditions: insulin stimulation versus unstimulated cells; dose and duration not given
Read-out: 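Per-plate z-scores of phospho-ERK immunostaining normalised to YFP-tagged ERK, measured with and without insulin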
Reading the numbers: replicate 1, z-score of dpERK with insulin: higher = more active ERK per ERK-YFP after insulin

lbe | replicate 1, z-score of dpERK with insulin = 0.29
Dsp1 | replicate 1, z-score of dpERK with insulin = 0
Or67d | replicate 1, z-score of dpERK with insulin = 0.51
Cyp9b1 | replicate 1, z-score of dpERK with insulin = -0.08
veg (retired record) | replicate 1, z-score of dpERK with insulin = 0.55
CG3817 | replicate 1, z-score of dpERK with insulin = -0.04
CG34225 | replicate 1, z-score of dpERK with insulin = -0.16
janA | replicate 1, z-score of dpERK with insulin = -0.82
REG | replicate 1, z-score of dpERK with insulin = -0.73
elm | replicate 1, z-score of dpERK with insulin = -0.49
Dp | replicate 1, z-score of dpERK with insulin = -2.53
Noc3 | replicate 1, z-score of dpERK with insulin = -0.04
CG14356 | replicate 1, z-score of dpERK with insulin = 0.96
CG15484 #1 | replicate 1, z-score of dpERK with insulin = 0.48
CG15484 #2 | replicate 1, z-score of dpERK with insulin = -0.71
SP | replicate 1, z-score of dpERK with insulin = 0.24
CG42674 #1 | replicate 1, z-score of dpERK with insulin = 1.37
CG42674 #2 | replicate 1, z-score of dpERK with insulin = 0.4
CG42674 #3 | replicate 1, z-score of dpERK with insulin = 0.95
CG17568 | replicate 1, z-score of dpERK with insulin = -0.01

Continued; the last 3 above are carried over.
CG42674 #2 | replicate 1, z-score of dpERK with insulin = 0.4
CG42674 #3 | replicate 1, z-score of dpERK with insulin = 0.95
CG17568 | replicate 1, z-score of dpERK with insulin = -0.01
Cp190 | replicate 1, z-score of dpERK with insulin = 0.39
Obp83a | replicate 1, z-score of dpERK with insulin = -0.52
CR11386 + CR33222 | replicate 1, z-score of dpERK with insulin = -0.69
Nplp4 | replicate 1, z-score of dpERK with insulin = 0.58
yki | replicate 1, z-score of dpERK with insulin = 0.12
resilin #1 | replicate 1, z-score of dpERK with insulin = 0.3
resilin #2 | replicate 1, z-score of dpERK with insulin = 0.56
Gr59a | replicate 1, z-score of dpERK with insulin = 0.04
fat-spondin | replicate 1, z-score of dpERK with insulin = -0.01
zda | replicate 1, z-score of dpERK with insulin = 0.03
CG34125 | replicate 1, z-score of dpERK with insulin = -0.3
CG17350 | replicate 1, z-score of dpERK with insulin = 0.86
p-cup | replicate 1, z-score of dpERK with insulin = 0.49
TwdlR | replicate 1, z-score of dpERK with insulin = 0.38
CG12355 #1 | replicate 1, z-score of dpERK with insulin = -0.44
CG12355 #2 | replicate 1, z-score of dpERK with insulin = -0.55
CG5021 | replicate 1, z-score of dpERK with insulin = -0.35
Kaz | replicate 1, z-score of dpERK with insulin = -1.18
Acp76A | replicate 1, z-score of dpERK with insulin = -0.07
nAChRalpha7 #1 | replicate 1, z-score of dpERK with insulin = 1.82
nAChRalpha7 #2 | replicate 1, z-score of dpERK with insulin = 0.54
